Reference: PubChem BioAssay AID588499 (NMMLSC, 2011)
The whole screen tested about 360,000 compounds, of which about 610 (0.17%) were called active. Inconclusive means that the source gave no clear call. Such entries were picked first, then a sample of the others. Cut-off read from the data, not from the text of the source: active = inhibition above about 30%; inconclusive = no clear call, values can overlap the other calls; inactive = below that.

Tested on: Botulinum neurotoxin type A light chain protease (Clostridium botulinum A str. ATCC 3502)
Experiment: blockers of BoNT/A LC substrate cleavage – biochemical, flow cytometry, MLPCN library, primary screen (AID 588499); note: plate controls were buffer without enzyme for full effect and enzyme alone for no effect
Settings: multiplex microsphere protease substrate cleavage, at 10 µM, stronger effect = higher value

SMILES | inhibition
CC1CCCCC1NC(=O)c1cn(C)c2ccc(S(=O)(=O)N3CCCC3)cc2c1=O (configuration not stated) | inconclusive: 0.2%
COc1ccc(-c2csc(-c3cc4ccccc4oc3=N)n2)cc1 | active: 39.4%
COc1cccc2cc(-c3nnc(SCC(=O)NCc4ccccc4)n3C)oc12 | inconclusive: 3.9%
O=C1NCC(COCC2CC=CCC2)O1 (configuration not stated) | inconclusive: -0.7%
CC(C)OC(=O)NC(C)(C)COC(=O)Nc1cccc(Cl)c1 | inconclusive: -2.4%
COc1ccccc1-n1cc([C@@H]2C[C@H]3CN(c4ccccc4)C(=O)[C@]34CCCN24)cn1 | inconclusive: 10.2%
CCC(=O)OCCNc1cc(Sc2nc3ccccc3s2)c2nonc2c1[N+](=O)[O-] | inconclusive: 18.9%
CC1=Nc2ccccc2N=C(NC(=O)CSC(=S)N2CCCCC2)C1c1ccccc1 (configuration not stated) | inconclusive: 4.9%
COc1ccc2c(Cl)c(C(=O)N/N=C/c3c(C)[nH]c4ccccc34)sc2c1 | active: 35.9%
Cc1ccc2[nH]c3c(=O)n(N)c(=O)[nH]c3c2c1 | inactive: 0.1%
CC(C)C(OC(=O)CN1C(=O)COc2ccccc21)C(=O)NC1CCCC1 (configuration not stated) | inconclusive: 2.3%
Cc1nnc2n(c1=O)C(CS(=O)(=O)c1ccccc1)CS2 (configuration not stated) | inconclusive: 1.6%
COc1ccc(/C=C/C(=O)OCC(=O)Nc2ccc3c(c2)OCO3)cc1 | inactive: 0.3%
COc1nn(CC(=O)N2N=C(C)CC2(O)C(F)F)cc1[N+](=O)[O-] (configuration not stated) | inactive: 0%
CC(C)C(NC(=O)c1ccccc1NC(=O)c1ccco1)C(=O)NNC(=O)c1ccncc1 (configuration not stated) | inconclusive: 1.8%
CC(C)N=C1NN=C(c2ccc(Cl)c(Cl)c2)CS1 | inactive: 0.5%
COC(=O)C1=C(C)NC(=O)CC1c1ccc(F)c(Br)c1 (configuration not stated) | inconclusive: 1.1%
CCOc1cc(C(=O)OCC(=O)c2c(C)[nH]c3ccccc23)ccc1OCC(=O)N1CCOCC1 | inconclusive: 0.7%
COc1ccc(OC)c(NC(=O)NCc2ccc(F)cc2)c1 | inconclusive: 0.5%

Two entries from above, as labelled records.
CCC(=O)OCCNc1cc(Sc2nc3ccccc3s2)c2nonc2c1[N+](=O)[O-]
  inhibition: inconclusive: 18.9%
CC1=Nc2ccccc2N=C(NC(=O)CSC(=S)N2CCCCC2)C1c1ccccc1 (configuration not stated)
  inhibition: inconclusive: 4.9%

Further structures follow.

SMILES | inhibition
COc1ccc(C)cc1NC(=O)CN1CCN(C/C=C/c2ccccc2)CC1 | inconclusive: 2%
CC(=O)Nc1sc(N/N=C/c2ccccc2)nc1-c1ccc(C)cc1 | inconclusive: 0.3%
Cc1cc2cc(CNC(=S)Nc3ccc(OC(F)F)cc3)ccc2n1C | active: 66.1%
NC(=NC(=O)c1ccc(OCC(F)(F)F)nc1)c1ccc(Cl)cc1 | inactive: -0.3%
CCOC(=O)CN(C)Cc1cn(C)nc1-c1ccc(Oc2ccccc2)cc1 | inactive: 5.3%
COc1ccccc1Cn1c(/C=C/c2ccccc2)nc2ccccc21 | inactive: -0.1%
CC1=CC(C)(C)Nc2ccccc21 | inconclusive: 26.4%
COc1ccccc1N1C(C)=CC(=C(C#N)c2nc3ccccc3s2)C=C1C | active: 56.9%
Cn1c(=O)oc2cc(S(=O)(=O)NCCN3CCCCCC3)ccc21 | inconclusive: -6.6%
CCOC(=O)C1(C)C(=O)CC2c3nc4ccccc4cc3CN2C1=O (configuration not stated) | inactive: -0.6%
Brc1ccc(NCc2cccc3ccccc23)nc1 | inconclusive: 3%
CN1CCN(c2ccc([N+](=O)[O-])cc2NC(=O)c2ccccc2)CC1 | inconclusive: -2.1%
CCOc1ccc(NC(=O)CC2C(=O)N(CC)C(=S)N2NC(=O)c2ccncc2)cc1 (configuration not stated) | inconclusive: 3.8%
CC#CCCCC(=O)Nc1cccc(C(=O)O)c1 | inactive: 5.8%
CN1C(=O)NC(c2ccccc2)C2=C1CN(CCc1ccccc1)C2=O (configuration not stated) | inconclusive: -1%
Clc1ccc(Cl)c(-c2ccc(/C=N/c3ncn[nH]3)o2)c1 | inconclusive: 3.1%
O=C(c1ccc(Cl)cc1)c1cnc(Nc2ccccc2Cl)s1 | inconclusive: -0.4%
CC1(C)NC(=O)N(c2ccc([N+](=O)[O-])c(C(F)(F)F)c2)C1=O | inactive: -0.3%
CCOC(=O)C1CCN(C(=O)c2sc3ncnc(N4CCC(C)CC4)c3c2C)CC1 | inconclusive: -0.2%

Reformatted with each value named: three of the compounds above.
CC1=CC(C)(C)Nc2ccccc21
  inhibition: inconclusive: 26.4%
COc1ccccc1N1C(C)=CC(=C(C#N)c2nc3ccccc3s2)C=C1C
  inhibition: active: 56.9%
Cn1c(=O)oc2cc(S(=O)(=O)NCCN3CCCCCC3)ccc21
  inhibition: inconclusive: -6.6%

(listing goes on)

SMILES | inhibition
CCOC(=O)N1CCC(Nc2c(N3CCN(c4cc(Cl)ccc4C)CC3)c(=O)c2=O)CC1 | inactive: -0.8%
CC(=O)Nc1ccc(NC(=O)CSc2nnc(NC(=O)C3CC(=O)N(c4ccc(F)cc4)C3)s2)cc1 (configuration not stated) | inactive: -1.2%
CCOC(=O)N1CCN(Cc2nc3c(c(=O)n(C)c(=O)n3C)n2CCCc2ccccc2)CC1 | inactive: 1.5%
COc1cc(/C=C2\SC(N)=NC2=O)cc(Cl)c1O | inactive: -0.5%
COc1ccc(NC(=O)CSc2nc3sc(C)c(C)c3c(=O)n2Cc2ccco2)cc1 | inconclusive: 6.8%
O=C(c1ccccc1)c1sc(N2CCCCCC2)nc1-c1ccccc1 | active: 53.9%
Cc1cc(/C=C2/SC(=S)N(c3cccc(Cl)c3)C2=O)c(C)n1-c1cccnc1 | active: 59.5%
CC(=O)C1C(c2ccco2)c2c(noc2C)CC1(C)O (configuration not stated) | inconclusive: -6%
CS(=O)(=O)c1ccc(C(=O)OCc2nnc(-c3ccc(Cl)cc3)o2)cc1[N+](=O)[O-] | inactive: -0.5%
CC1CN(C(=O)c2ccccc2)OC(c2ccc3c(c2)OCO3)O1 (configuration not stated) | inactive: -0.7%
O=C(NCc1ccco1)C12CC3CC(C1)CC(C(=O)NCc1ccco1)(C3)C2 | inconclusive: -0.3%
N[C@@H](Cc1c[nH]c2ccccc12)c1nnc(SCc2ccc(F)cc2)o1 | inconclusive: -3%
CC(C)(C)NC(=S)NNC(=O)[C@H]1C[C@@H]1c1ccccc1 | inconclusive: 2.7%
COc1ccc(/C=N/NC(=O)C2CCN(c3ncc(C(F)(F)F)cc3Cl)CC2)cc1 | inconclusive: 0%
Cc1ccc(C2CN(C)C3(C(=O)Nc4ccccc43)C23COc2ccccc2C3=O)cc1 (configuration not stated) | inactive: -0.4%
COc1ccc(S(=O)(=O)N2CCN(C(=O)NCc3ccc(OC)c(OC)c3)CC2)cc1 | inactive: -3.9%
CCOC(=O)c1ccc(CNC(=O)c2n[nH]c(=O)c3ccccc23)o1 | inconclusive: -1.9%
N#CC12CCCCC1CC1CCCCC1(C#N)N2N (configuration not stated) | inconclusive: -35.7%
COc1ccc(C2=NOC(C(=O)NCc3ccco3)C2)cc1OC (configuration not stated) | inconclusive: -1.3%
